Test results as given in PubChem BioAssay AID1671190 (National Center for Advancing Translational Sciences (NCATS), 2021).
The campaign covered roughly 580,000 compounds. About 6,100 (1.1%) were called active. Inconclusive means that the source gave no clear call. Such entries were picked first, then a sample of the others. The call rests on the fitted dose curve; in most records, active means well fitted inhibition curve with a large enough effect; inconclusive means small, poorly fitted or top-dose-only effect, or another doubt; inactive means no such curve, though single readings can be large or run the other way. Where the call is inconclusive, the potency comes from a doubtful curve fit.

Amino acid sequences for entries named in this document (tags omitted). A change or cut given only in a name is not applied to a line headed by its entry.
UniProt P18054: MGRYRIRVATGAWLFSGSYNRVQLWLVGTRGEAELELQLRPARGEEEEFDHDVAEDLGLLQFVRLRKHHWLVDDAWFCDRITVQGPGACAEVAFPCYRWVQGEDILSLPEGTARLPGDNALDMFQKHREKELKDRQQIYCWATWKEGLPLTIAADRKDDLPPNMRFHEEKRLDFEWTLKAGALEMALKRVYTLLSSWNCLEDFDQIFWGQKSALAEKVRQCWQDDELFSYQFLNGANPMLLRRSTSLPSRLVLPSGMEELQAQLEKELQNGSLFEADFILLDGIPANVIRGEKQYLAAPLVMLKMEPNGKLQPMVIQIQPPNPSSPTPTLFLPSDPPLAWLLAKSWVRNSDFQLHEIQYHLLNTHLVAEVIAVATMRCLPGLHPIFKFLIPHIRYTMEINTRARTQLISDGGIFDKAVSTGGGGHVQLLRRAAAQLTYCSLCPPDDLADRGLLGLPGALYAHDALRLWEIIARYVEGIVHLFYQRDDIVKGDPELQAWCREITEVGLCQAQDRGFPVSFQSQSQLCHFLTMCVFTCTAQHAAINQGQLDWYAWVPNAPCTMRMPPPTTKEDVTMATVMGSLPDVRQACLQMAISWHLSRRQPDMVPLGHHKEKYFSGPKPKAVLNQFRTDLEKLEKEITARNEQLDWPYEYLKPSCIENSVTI

Target: Polyunsaturated fatty acid lipoxygenase ALOX12 (Homo sapiens) (UniProt P18054)
Experiment: Primary qHTS assay for inhibitors of human arachidonate 12S-lipoxygenase (ALOX12): Round 2
Details: purified 12hLO, xylenol orange hydroperoxide absorbance; activity change, negative = inhibition: at 108 µM (top of the series) unless noted
Outline: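 Purified human 12hLO at 150 nM in 25 mM Hepes, 0.01% Triton X-100, pH 7.0, preincubated 15 min at room temperature with compound. Reaction started with 40 uM arachidonic acid, 30 min at room temperature. Hydroperoxide measured by Fe-xylenol orange, 573/405 nm absorbance ratio.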
On the % scale 0 is the no-effect control and ±100 the full control effect; potency means the concentration at half of the fitted maximal effect.

| Structure (SMILES) | activity change, negative = inhibition | Potency |
| --- | --- | --- |
| Nc1n[nH]c(N)c1N=Nc1cccc(C(F)(F)F)c1 | inactive: 0% | – |
| CCOC1=C2[C@@H](CN(S(=O)(=O)c3ccc(C)cc3)[C@H]2c2ccccc2F)[C@H]2C(=O)N(Cc3ccccc3)C(=O)[C@H]2C1 | – | inconclusive: 112 µM [inhibitor, single point] |
| COc1ccc(N2CC(C(=O)N[C@H](C(=O)NC3CCCC3)C(C)C)CC2=O)cc1 (some centres undefined) | inactive: 60% | – |
| CCOc1ccc(C(=O)Nc2cc3c(cc2N2CCCC2)n(CC)c(=O)n3CC)cc1OCC | inactive: 0% | – |
| Cn1cccc1C(=O)N[C@H]1C[C@@H](C(=O)O)N(C(=O)CSCC(=O)N2C[C@@H](NC(=O)c3cccs3)C[C@H]2C(=O)O)C1 | – | inconclusive: 14.1 µM [inhibitor, full curve, poor fit] |
| Cc1ccc(C(C)C)c(OCC(=O)NC2CCN(C)CC2)c1 | – | inconclusive: 56.2 µM [inhibitor, partial curve, poor fit] |
| O=C1NCc2ccccc2CC12CCN(Cc1cccc(F)c1F)CC2 | inactive: 7.47% [at 6.33 µM] | – |
| Cc1cccc(NC(=O)c2sc(-n3nc(C)c(Cl)c3C)nc2C)c1 | inactive: 7.49% | – |
| CC1CCN(S(=O)(=O)c2cc(C(=O)NCCc3ccccc3)n(C)c2)CC1 | – | inconclusive: 100 µM [inhibitor, partial curve, poor fit] |
| COc1ccc(N2CCN(C(=O)c3ccccc3NS(=O)(=O)c3ccccc3)CC2)cc1 | – | inconclusive: 44.7 µM [inhibitor, partial curve, poor fit] |
| COc1cc(NC(=O)c2ccco2)c(OC)cc1NC(=O)CCC(=O)Nc1cc(C)ccc1C | inactive: -12% | – |
| CC(C)(C)c1ccc(C(=O)Nc2cc(-c3ccccc3)nn2-c2ccccc2)cc1 | inactive: -19.1% | – |
| CC(OC(=O)C1=Cc2ccccc2OC1)C(=O)NC1CCCC1 (centres undefined) | inactive: -8.21% | – |
| C=CCOc1ccc(C2NC(=S)NC(c3ccccc3)=C2C(C)=O)cc1OC (centres undefined) | – | inconclusive: 44.7 µM [inhibitor, partial curve, poor fit] |
| COc1ccc(CN2C[C@H](Sc3nc4ccccc4[nH]3)C[C@H]2C(=O)N2CCCN(C)CC2)cc1C | inactive: 10.6% | – |
| COc1ccccc1CCNC(=O)C(=O)NCc1n[nH]c(=O)c2ccccc12 | inactive: -1.08% | – |
| CC(C)CCn1c(CN(C)Cc2ccccc2)nc2c1c(=O)n(C)c(=O)n2C | – | inconclusive: 79.4 µM [inhibitor, partial curve, poor fit] |
| Cc1ccccc1OCc1nc(C#N)c(NCc2ccc3c(c2)OCO3)o1 | inactive: -8.91% | – |
| Cc1ccc([N+](=O)[O-])cc1-c1ccc(/C=C(\C#N)c2[nH]nc(N)c2C#N)o1 | inactive: -8.15% | – |

Whole records as entered above:
COc1ccccc1CCNC(=O)C(=O)NCc1n[nH]c(=O)c2ccccc12 as listed: activity change, negative = inhibition: inactive: -1.08%
C=CCOc1ccc(C2NC(=S)NC(c3ccccc3)=C2C(C)=O)cc1OC (centres undefined) as listed: Potency: inconclusive: 44.7 µM [inhibitor, partial curve, poor fit]
